PubChem BioAssay AID493246 – Drosophila RNAi Screening Center, 2011

- Purpose: 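Genes fly cells need to grow and stay alive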 (primary screen)
- Cell system: Drosophila Kc and S2R+ cells
- Reagent: long dsRNA against Drosophila genes
- Measurement: 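Cell number per well after knock-down, printed as raw plate values; calls were based on per-plate z-scores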
- Direction: Kc cell number and S2R+ cell number: higher = more cells remaining
- Call rule: 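Counted as a hit if cell number falls by a z-score of at least 3 within its plate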
The screen tested about 21,000 reagents; this is a random part of those with a known target gene and a result. In the full data, 429 (2%) are marked active. 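Values are raw and not normalised between plates; calls rest on per-plate z-scores that were not deposited.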 Reagents against one gene are numbered here. A plus sign joins genes that one reagent is predicted to hit. No sequences are given here. Not stated in the record: the amount of reagent, the time to read-out.

| Target gene | reagent no. | Kc cell number, rep 1 | Kc cell number, rep 2 | S2R+ cell number, rep 1 | S2R+ cell number, rep 2 | outcome |
| --- | --- | --- | --- | --- | --- | --- |
| Psn | 1 | 1.32e6 | 1.34e6 | 1.31e6 | 1.36e6 | inactive |
| CG11192 | 1 | 1.67e6 | 1.70e6 | 1.16e6 | 1.39e6 | inactive |
| Lcp65Ad | 1 | 1.49e6 | 1.55e6 | 1.07e6 | 1.20e6 | inactive |
| CG7943 | 1 | 5.20e5 | – | 8.31e5 | – | inactive |
| dikar | 1 | 1.30e6 | 1.35e6 | 1.28e6 | 1.21e6 | inactive |
| CG13096 | 1 | 1.56e6 | 1.57e6 | 1.17e6 | 1.36e6 | inactive |
| yki | 1 | 1.28e6 | 1.33e6 | 1.08e6 | 1.15e6 | inactive |
| IFT52 | 1 | 1.61e6 | 1.75e6 | 1.11e6 | 1.18e6 | inactive |
| CG13364 | 1 | 1.58e6 | 1.58e6 | 9.95e5 | 1.12e6 | inactive |
| CG13364 | 2 | 1.72e6 | 1.77e6 | 1.06e6 | 1.21e6 | inactive |
| Dmtn | 1 | 1.62e6 | 1.66e6 | 1.23e6 | 1.29e6 | inactive |
| Eip75B | 1 | 1.50e6 | 1.63e6 | 7.32e5 | 8.15e5 | inactive |
| vir-1 | 1 | 1.52e6 | 1.68e6 | 1.20e6 | 1.33e6 | inactive |
| vir-1 | 2 | 1.46e6 | 1.56e6 | 9.48e5 | 1.03e6 | inactive |
| CG3397 | 1 | 1.41e6 | 1.54e6 | 1.18e6 | 1.27e6 | inactive |
| CG12560 | 1 | 1.51e6 | 1.62e6 | 1.22e6 | 1.36e6 | inactive |
| Act57B | 1 | 1.13e6 | 1.25e6 | 9.47e5 | 1.03e6 | inactive |
| CG17375 | 1 | 1.52e6 | 1.36e6 | 1.12e6 | 1.21e6 | inactive |
| cv | 1 | 1.61e6 | 1.57e6 | 1.08e6 | 1.15e6 | inactive |
| CG13014 | 1 | 1.50e6 | 1.48e6 | 1.04e6 | 1.14e6 | inactive |
| HisRS | 1 | 1.60e6 | 1.54e6 | 1.15e6 | 1.29e6 | inactive |
| CG7332 | 1 | 1.60e6 | 1.54e6 | 1.09e6 | 1.27e6 | inactive |
| CG7715 | 1 | 1.19e6 | 1.20e6 | 1.16e6 | 1.17e6 | inactive |
| Ag5r | 1 | 5.01e5 | – | 8.58e5 | – | inactive |
| Rbp1 | 1 | 1.59e6 | 1.63e6 | 1.27e6 | 1.41e6 | inactive |
| CG13344 | 1 | 1.37e6 | 1.43e6 | 1.11e6 | 1.18e6 | inactive |
| loqs | 1 | 1.55e6 | 1.61e6 | 1.16e6 | 1.31e6 | inactive |
| Sema5c | 1 | 1.29e6 | 1.24e6 | 1.22e6 | 1.32e6 | inactive |
| pic | 1 | 1.61e6 | 1.73e6 | 1.06e6 | 1.18e6 | inactive |
| dnd | 1 | 1.36e6 | 1.45e6 | 1.02e6 | 1.07e6 | inactive |
| CG7728 | 1 | 1.45e6 | 1.58e6 | 1.14e6 | 1.19e6 | inactive |
| CG34454 | 1 | 1.69e6 | 1.67e6 | 1.00e6 | 1.23e6 | inactive |
| Gyc76C + CG42637 | 1 | 1.55e6 | 1.61e6 | 1.22e6 | 1.24e6 | inactive |
| CG32075 | 1 | 1.51e6 | 1.49e6 | 1.25e6 | 1.29e6 | inactive |
| CG7691 | 1 | 1.26e6 | 1.40e6 | 1.09e6 | 1.15e6 | inactive |
| CG14535 | 1 | 1.53e6 | 1.55e6 | 1.22e6 | 1.26e6 | inactive |
| SERCA | 1 | 1.40e6 | 1.48e6 | 1.06e6 | 1.07e6 | inactive |
| l(2)SH0834 | 1 | 1.47e6 | 1.53e6 | 9.52e5 | 1.03e6 | inactive |
| Bap55 | 1 | 1.24e6 | 1.26e6 | 9.57e5 | 1.06e6 | inactive |
| CG15865 | 1 | 1.46e6 | 1.46e6 | 1.04e6 | 1.12e6 | inactive |
| yellow-h | 1 | 1.50e6 | 1.51e6 | 1.01e6 | 1.14e6 | inactive |
| dpr15 | 1 | 1.50e6 | 1.68e6 | 1.08e6 | 1.21e6 | inactive |
| dpr15 | 2 | 1.52e6 | 1.46e6 | 1.08e6 | 1.19e6 | inactive |
| dpr15 | 3 | 1.71e6 | 1.64e6 | 1.37e6 | 1.50e6 | inactive |
| CG13284 | 1 | 1.60e6 | 1.63e6 | 1.32e6 | 1.42e6 | inactive |
| GstD6 | 1 | 1.66e6 | 1.70e6 | 1.35e6 | 1.45e6 | inactive |
| CG12460 (retired record) | 1 | 1.57e6 | 1.57e6 | 9.49e5 | 1.08e6 | inactive |
| fat-spondin | 1 | 1.37e6 | 1.42e6 | 1.23e6 | 1.30e6 | inactive |
| OXA1L | 1 | 1.24e6 | 1.34e6 | 1.02e6 | 9.99e5 | inactive |
| CG17230 | 1 | 1.55e6 | 1.61e6 | 1.32e6 | 1.33e6 | inactive |
| CG4593 | 1 | 1.52e6 | 1.45e6 | 8.88e5 | 1.01e6 | inactive |
| CG33333 | 1 | 1.43e6 | 1.39e6 | 1.00e6 | 1.09e6 | inactive |
| Pitslre | 1 | 1.34e6 | 1.46e6 | 8.18e5 | 9.08e5 | inactive |
| CR11700 (retired record) | 1 | 1.05e5 | 1.12e5 | 2.37e5 | 3.19e5 | active |
| emp | 1 | 1.42e6 | 1.60e6 | 9.85e5 | 1.12e6 | inactive |
| emp | 2 | 1.38e6 | 1.46e6 | 1.06e6 | 1.12e6 | inactive |
| CG14434 | 1 | 1.52e6 | 1.54e6 | 1.07e6 | 1.19e6 | inactive |
| CG32407 | 1 | 1.67e6 | 1.59e6 | 1.12e6 | 1.29e6 | inactive |
| Trpml + CG42638 | 1 | 1.45e6 | 1.55e6 | 1.08e6 | 1.10e6 | inactive |
| CG33981 + fab1 | 1 | 1.37e6 | 1.42e6 | 1.10e6 | 1.14e6 | inactive |
| Pkn | 1 | 9.68e5 | 1.13e6 | 9.63e5 | 9.00e5 | inactive |
| Pkn | 2 | 1.54e6 | 1.74e6 | 1.28e6 | 1.36e6 | inactive |
| CG3328 | 1 | 1.25e6 | 1.32e6 | 1.10e6 | 1.20e6 | inactive |
| CG15226 (retired record) | 1 | 5.87e5 | – | 8.37e5 | – | inactive |
| CG15226 (retired record) | 2 | 1.86e6 | 1.94e6 | 1.33e6 | 2.90e5 | inactive |
| CG42354 + CG42353 | 1 | 4.18e5 | – | 6.79e5 | – | inactive |
| Arl6IP1 | 1 | 1.45e6 | 1.43e6 | 1.09e6 | 1.20e6 | inactive |
| CG8042 | 1 | 1.42e6 | 1.45e6 | 1.28e6 | 1.26e6 | inactive |
| CheA87a | 1 | 1.38e6 | 1.37e6 | 1.08e6 | 1.18e6 | inactive |
| CG11723 | 1 | 1.28e6 | 1.21e6 | 8.37e5 | 7.46e5 | inactive |
| CG8837 | 1 | 1.47e6 | 1.48e6 | 1.12e6 | 1.27e6 | inactive |
| eg | 1 | 1.39e6 | 1.39e6 | 1.33e6 | 1.46e6 | inactive |
| CG5500 | 1 | 1.62e6 | 1.60e6 | 1.08e6 | 1.20e6 | inactive |
| CG4884 | 1 | 1.72e6 | 1.80e6 | 1.03e6 | 1.06e6 | inactive |
| GstE2 | 1 | 1.83e6 | 1.84e6 | 1.18e6 | 1.35e6 | inactive |

Entries above whose target name begins with V or v (2):
| Target gene | reagent no. | Kc cell number, rep 1 | Kc cell number, rep 2 | S2R+ cell number, rep 1 | S2R+ cell number, rep 2 | outcome |
| --- | --- | --- | --- | --- | --- | --- |
| vir-1 | 1 | 1.52e6 | 1.68e6 | 1.20e6 | 1.33e6 | inactive |
| vir-1 | 2 | 1.46e6 | 1.56e6 | 9.48e5 | 1.03e6 | inactive |
